In patent US6720346B2, “Thiazole benzamide derivatives and pharmaceutical compositions for inhibiting cell proliferation” (Agouron Pharmaceuticals, Inc., priority 2001, dated 2004):
The structures given here were assigned with low confidence; some may be wrong.

Amino acid sequences for entries named in this document (tags omitted). Residues count along the entry.
UniProt P11802, whole entry: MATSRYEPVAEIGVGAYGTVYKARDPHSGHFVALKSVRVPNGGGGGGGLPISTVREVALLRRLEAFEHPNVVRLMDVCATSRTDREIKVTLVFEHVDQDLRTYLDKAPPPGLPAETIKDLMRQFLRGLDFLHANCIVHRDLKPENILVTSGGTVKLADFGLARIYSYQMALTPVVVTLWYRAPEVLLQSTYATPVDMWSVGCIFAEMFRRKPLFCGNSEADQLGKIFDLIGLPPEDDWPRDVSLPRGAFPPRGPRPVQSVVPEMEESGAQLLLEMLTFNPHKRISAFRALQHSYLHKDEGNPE
UniProt P30281, 1-264 partner limits assumed: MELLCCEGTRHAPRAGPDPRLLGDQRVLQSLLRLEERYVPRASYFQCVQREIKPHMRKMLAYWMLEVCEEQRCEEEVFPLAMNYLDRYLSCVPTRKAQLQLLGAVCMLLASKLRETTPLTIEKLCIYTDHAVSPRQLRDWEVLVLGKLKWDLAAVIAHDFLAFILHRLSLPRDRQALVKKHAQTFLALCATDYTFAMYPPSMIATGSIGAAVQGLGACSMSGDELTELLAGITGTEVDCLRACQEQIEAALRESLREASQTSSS

Legend:
human CDK4/cyclin D3 = human CDK4/cyclin D3 (Homo sapiens, UniProt P11802); experiment: Inhibition of CDK4/cyclin D retinoblastoma kinase activity (Ki; % inhibition); details: read-out: CDK4 Ki; apparent Ki, CDK4/cyclin D3, Rb substrate
HCT-116 cell line = experiment: Inhibition of cell growth, MTT tetrazolium salt assay; details: read-out: HCT-116 IC50, three to five days
Procedure: Inhibition of cell growth was measured using the tetrazolium salt assay, which is based on the ability of viable cells to reduce 3-(4,5-dimethylthiazol-2-yl)-2,5-[2H]-diphenyltetrazolium bromide (MTT) to formazan (Mossman, Journal of Immunological Methods, 65, (1983), pp. 55-58). The water-insoluble purple formazan product was then detected spectrophotometrically. The HCT-116 cell line was used as a representative cancer cell line and grown in 96-well plates. Cells were plated in McCoy's 5A Medium at a volume of 135 μl/well. Plates were incubated for four hours before addition of inhibitor compounds. Different concentrations of inhibitor compounds were added in 0.5% (v/v) dimethylsulfoxide (15 μL/well), and cells were incubated at 37° C. (5% CO2) for three to five days. At the end of the incubation, MTT was added to a final concentration of 0.2 mg/mL, and cells were incubated for 4 hours more at 37° C. After centrifugation of the plates and removal of medium, the absorbance of the formazan (solubilized in dimethylsulfoxide) was measured at 540 nm. The concentration of inhibitor compound causing 50% (IC50) or 90% ([…]) inhibition of growth was determined from the linear portion of a semi-log plot of inhibitor concentration versus percent inhibition. All results were compared to control cells treated only with 0.5% (v/v) dimethylsulfoxide.

Ki (human CDK4/cyclin D3): 53 nM | IC50 (HCT-116 cell line): 300 nM
Structure (SMILES): C[C@H](CN(C)C)N(C)C(=O)c1ccc(Nc2nc(N)c(C(=O)c3c(F)cccc3F)s2)cc1
